Test results: PMC9776037
Results are given in words; binding and its absence hold for the method and conditions named. In cells and extracts the contact can be indirect. Some binding calls cover weakened binding; strength is not graded here.

Chains of the proteins cited; added tags and fusions are not shown. Lines headed by an entry give the natural chain unless they say otherwise; changes in a name come on top. Residues count along the entry.
UniProt Q05793, residues 22-3707: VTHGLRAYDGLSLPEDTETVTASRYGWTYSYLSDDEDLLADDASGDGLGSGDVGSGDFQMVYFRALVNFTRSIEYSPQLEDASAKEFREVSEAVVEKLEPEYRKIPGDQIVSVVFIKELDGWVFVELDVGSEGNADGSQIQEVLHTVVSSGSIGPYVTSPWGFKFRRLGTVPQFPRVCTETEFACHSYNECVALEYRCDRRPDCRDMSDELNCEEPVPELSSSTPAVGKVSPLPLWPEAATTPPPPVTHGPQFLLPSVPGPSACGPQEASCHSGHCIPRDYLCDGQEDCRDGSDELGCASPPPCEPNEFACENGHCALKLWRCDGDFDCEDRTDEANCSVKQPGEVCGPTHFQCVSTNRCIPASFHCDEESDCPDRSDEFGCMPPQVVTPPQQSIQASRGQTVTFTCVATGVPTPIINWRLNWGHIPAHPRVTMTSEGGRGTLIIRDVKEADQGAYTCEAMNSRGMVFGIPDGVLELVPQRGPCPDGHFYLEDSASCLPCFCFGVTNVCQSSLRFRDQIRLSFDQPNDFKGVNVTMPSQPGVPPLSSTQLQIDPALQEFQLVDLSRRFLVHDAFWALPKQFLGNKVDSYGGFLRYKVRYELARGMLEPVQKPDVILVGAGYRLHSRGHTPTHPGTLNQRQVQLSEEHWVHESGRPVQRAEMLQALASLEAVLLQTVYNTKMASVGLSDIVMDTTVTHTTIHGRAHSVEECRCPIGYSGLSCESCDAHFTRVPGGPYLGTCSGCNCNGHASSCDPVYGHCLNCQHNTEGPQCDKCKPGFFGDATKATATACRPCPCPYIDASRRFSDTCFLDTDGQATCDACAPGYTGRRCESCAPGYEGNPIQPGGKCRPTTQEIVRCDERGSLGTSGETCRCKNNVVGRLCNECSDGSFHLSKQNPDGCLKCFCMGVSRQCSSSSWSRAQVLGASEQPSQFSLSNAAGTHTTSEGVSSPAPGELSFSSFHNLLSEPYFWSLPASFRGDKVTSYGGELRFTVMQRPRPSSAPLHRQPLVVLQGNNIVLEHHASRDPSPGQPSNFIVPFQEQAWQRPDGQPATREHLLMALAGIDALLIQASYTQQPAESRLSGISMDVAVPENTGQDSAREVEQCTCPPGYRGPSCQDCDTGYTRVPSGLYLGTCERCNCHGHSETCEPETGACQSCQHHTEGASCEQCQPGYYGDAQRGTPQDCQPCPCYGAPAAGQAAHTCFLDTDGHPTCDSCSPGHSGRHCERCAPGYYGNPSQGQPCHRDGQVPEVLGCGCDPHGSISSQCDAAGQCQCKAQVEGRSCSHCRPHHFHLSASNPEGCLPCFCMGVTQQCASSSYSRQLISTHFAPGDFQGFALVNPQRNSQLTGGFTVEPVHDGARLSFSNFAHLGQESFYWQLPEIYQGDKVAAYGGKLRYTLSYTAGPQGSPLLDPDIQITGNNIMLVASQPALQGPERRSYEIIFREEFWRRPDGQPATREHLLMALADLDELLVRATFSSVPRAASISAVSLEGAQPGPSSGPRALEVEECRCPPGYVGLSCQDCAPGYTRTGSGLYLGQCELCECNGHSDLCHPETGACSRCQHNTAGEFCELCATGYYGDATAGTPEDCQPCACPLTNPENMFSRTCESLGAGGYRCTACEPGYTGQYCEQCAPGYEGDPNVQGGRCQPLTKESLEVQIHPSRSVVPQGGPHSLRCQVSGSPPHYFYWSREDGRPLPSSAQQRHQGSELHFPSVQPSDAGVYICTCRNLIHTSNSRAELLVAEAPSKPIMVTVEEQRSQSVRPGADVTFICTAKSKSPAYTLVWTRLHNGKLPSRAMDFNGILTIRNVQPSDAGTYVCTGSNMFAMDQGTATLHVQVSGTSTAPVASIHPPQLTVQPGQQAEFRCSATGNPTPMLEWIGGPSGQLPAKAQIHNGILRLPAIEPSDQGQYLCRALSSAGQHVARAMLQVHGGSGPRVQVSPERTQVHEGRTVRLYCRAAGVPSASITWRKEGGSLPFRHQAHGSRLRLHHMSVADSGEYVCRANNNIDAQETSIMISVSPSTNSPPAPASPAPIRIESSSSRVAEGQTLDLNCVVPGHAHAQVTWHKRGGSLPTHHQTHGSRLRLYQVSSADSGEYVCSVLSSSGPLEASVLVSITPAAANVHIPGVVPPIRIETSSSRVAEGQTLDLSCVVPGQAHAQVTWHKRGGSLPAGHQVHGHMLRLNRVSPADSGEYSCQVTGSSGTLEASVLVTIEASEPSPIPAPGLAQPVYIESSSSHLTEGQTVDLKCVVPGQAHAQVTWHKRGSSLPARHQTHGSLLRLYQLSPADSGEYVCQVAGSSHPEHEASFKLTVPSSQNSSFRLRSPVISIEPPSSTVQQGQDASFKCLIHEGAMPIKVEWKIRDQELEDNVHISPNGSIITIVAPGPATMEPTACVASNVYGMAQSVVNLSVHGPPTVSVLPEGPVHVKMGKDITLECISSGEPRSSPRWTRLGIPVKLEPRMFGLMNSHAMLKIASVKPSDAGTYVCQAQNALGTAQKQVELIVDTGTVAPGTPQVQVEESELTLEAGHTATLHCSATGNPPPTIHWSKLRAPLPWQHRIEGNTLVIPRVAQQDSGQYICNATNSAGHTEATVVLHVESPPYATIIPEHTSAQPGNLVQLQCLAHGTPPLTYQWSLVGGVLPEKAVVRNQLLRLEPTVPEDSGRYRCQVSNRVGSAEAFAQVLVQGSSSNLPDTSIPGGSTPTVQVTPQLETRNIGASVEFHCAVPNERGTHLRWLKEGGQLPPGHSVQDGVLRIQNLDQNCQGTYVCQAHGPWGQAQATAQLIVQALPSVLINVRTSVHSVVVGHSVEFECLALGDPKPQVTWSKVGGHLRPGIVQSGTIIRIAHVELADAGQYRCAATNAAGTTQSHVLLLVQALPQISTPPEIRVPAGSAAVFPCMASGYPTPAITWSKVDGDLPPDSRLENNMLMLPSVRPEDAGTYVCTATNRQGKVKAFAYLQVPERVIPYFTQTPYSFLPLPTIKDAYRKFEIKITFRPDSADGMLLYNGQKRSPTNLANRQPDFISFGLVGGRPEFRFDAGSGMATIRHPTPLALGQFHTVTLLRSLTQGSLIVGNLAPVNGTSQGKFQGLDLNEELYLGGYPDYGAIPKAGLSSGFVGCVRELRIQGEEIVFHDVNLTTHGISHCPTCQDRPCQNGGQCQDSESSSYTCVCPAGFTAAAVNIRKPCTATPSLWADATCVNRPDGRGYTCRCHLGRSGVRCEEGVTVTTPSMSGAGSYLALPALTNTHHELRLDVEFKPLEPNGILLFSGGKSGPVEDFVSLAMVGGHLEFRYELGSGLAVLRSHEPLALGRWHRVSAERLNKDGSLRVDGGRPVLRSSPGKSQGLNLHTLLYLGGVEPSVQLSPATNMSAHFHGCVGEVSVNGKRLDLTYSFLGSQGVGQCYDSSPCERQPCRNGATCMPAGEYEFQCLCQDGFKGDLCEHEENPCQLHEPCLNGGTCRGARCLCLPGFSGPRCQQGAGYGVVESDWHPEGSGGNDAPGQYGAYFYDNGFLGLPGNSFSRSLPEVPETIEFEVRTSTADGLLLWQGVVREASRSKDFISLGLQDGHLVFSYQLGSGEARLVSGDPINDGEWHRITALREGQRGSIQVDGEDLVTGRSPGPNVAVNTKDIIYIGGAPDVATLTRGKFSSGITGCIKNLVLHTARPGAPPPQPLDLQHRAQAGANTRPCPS
UniProt O08532, residues 25-1103: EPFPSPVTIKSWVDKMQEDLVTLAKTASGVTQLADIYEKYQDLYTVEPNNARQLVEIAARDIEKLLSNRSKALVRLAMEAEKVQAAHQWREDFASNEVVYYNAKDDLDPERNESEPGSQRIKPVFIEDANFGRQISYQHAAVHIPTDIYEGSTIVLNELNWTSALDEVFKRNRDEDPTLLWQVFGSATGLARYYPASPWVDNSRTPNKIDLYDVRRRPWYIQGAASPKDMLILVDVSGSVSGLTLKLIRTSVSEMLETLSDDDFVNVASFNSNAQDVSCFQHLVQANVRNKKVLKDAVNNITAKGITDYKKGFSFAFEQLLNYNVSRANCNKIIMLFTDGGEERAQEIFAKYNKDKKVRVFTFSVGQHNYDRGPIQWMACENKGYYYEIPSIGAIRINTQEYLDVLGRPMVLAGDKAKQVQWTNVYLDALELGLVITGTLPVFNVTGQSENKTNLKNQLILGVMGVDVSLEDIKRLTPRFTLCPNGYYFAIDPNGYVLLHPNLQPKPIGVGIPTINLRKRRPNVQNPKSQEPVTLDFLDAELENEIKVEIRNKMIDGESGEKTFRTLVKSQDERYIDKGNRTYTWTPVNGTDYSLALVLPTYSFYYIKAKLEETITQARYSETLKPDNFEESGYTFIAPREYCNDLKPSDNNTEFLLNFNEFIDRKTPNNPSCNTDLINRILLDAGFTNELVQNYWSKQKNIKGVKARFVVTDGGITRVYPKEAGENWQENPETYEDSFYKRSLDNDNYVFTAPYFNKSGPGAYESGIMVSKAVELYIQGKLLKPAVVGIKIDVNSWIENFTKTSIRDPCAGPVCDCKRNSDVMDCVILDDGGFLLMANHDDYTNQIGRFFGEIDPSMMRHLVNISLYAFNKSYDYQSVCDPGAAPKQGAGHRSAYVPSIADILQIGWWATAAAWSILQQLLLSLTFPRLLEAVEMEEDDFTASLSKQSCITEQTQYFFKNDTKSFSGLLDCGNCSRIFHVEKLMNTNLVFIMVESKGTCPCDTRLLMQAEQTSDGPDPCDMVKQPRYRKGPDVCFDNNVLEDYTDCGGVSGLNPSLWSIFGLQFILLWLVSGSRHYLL

Target: Perlecan (PLN), endogenous in MLO-Y4 cells (mouse (endogenous in MLO-Y4)) (UniProt Q05793)
Experiment: co-IP; MLO-Y4 lysates in RIPA buffer; Dynabeads with monoclonal anti-PLN A7L6 antibody or rat IgG, 45 min at RT; blots probed with anti-α2δ1A and anti-PLN A7L6

binding: binds
Substance: α2δ1 subunit of voltage-sensitive calcium channels, endogenous in MLO-Y4 cells (from UniProt O08532 25-1103)
